Reference: patent US12195506B2, “Immunotherapy with A*01 restricted peptides and combination of peptides against cancers and related methods” (Immatics Biotechnologies GmbH, priority 2018, dated 2025)

Key:
source genes (mRNA) = assay: Expression profiling of genes encoding the peptides (RNAseq, tumor versus normal tissues); set-up: species or system human; settings: for Gene Expression in tumor samples: Highly over-expressed (++): tumor types in which the source gene is highly over-expressed (++) compared to a panel of normal tissues
[1] = tested on: HLA molecules of primary tumors and normal tissue samples; assay: Identification and relative quantitation of HLA ligands by LC-MS (peptide presentation on tumor versus normal tissue); set-up: species or system human; settings: cancer entities on which the peptide was found presented (HLA ligands, LC-MS); abbreviations as in title of Table 8
[2] = source gene of the peptide, value = tumor type in which the gene is over-expressed compared to a panel of normal tissues
[3] = tumor types in which the source gene is over-expressed (+) compared to a panel of normal tissues

Substance | Gene Expression in tumor samples: over-expressed (+) (source genes (mRNA); [2]) | Peptide Presentation on cancer entities [1] | Gene Expression in tumor samples: over-expressed (+) (source genes (mRNA); [3]) | Gene Expression in tumor samples: Highly over-expressed (++) (source genes (mRNA))
281: peptide found in NUP155 (gene looked up) (YPDLSELLM; listed as Homo sapiens) [compound 281] | CCC; MEL and OSCAR and UBC | AML, RCC, UEC | – | –
293: peptide found in SLC6A5 (gene looked up) (IISVLIAIY; listed as Homo sapiens) [compound 293] | SCLC | BRCA | – | –
305: peptide found in MYO3B (gene looked up) (YADLLIYTY; listed as Homo sapiens) [compound 305] | – | NSCLCadeno, UBC | HNSCC, OC, UBC, UEC | –
315: peptide found in CCDC6 (gene looked up) (VLKIELETY; listed as Homo sapiens) [compound 315] | – | GBM, GC, NSCLCadeno, NSCLCsquam, OC, PACA, PRCA, RCC | OC, UEC | –
328: peptide found in HUNK (gene looked up) (LLDEDNNIKL; listed as Homo sapiens) [compound 328] | – | GBC | CRC, SCLC | –
345: peptide found in SLC12A2 (gene looked up) (NTMDAVPRIDHY; listed as Homo sapiens) [compound 345] | – | GBC, GC | CRC | –
349: peptide found in OR5AC2 (gene looked up) (HLLSVSLYY; listed as Homo sapiens) [compound 349] | – | NSCLCsquam | HCC | –
359: peptide found in ADCY10 (gene looked up) (NKEINYFMY; listed as Homo sapiens) [compound 359] | – | CCC | HCC | –
361: peptide found in AR (gene looked up) (FTAEEGQLY; listed as Homo sapiens) [compound 361] | – | BRCA, GBC, GBM, HCC, NSCLCadeno, NSCLCother, NSCLCsquam, PACA, PRCA, RCC, SCLC, UBC, UEC | HCC, PRCA | –
362: peptide found in AR (gene looked up) (SGALDEAAAY; listed as Homo sapiens) [compound 362] | – | GBM, NSCLCadeno, PRCA | HCC, PRCA | –
374: peptide found in CDK6 (gene looked up) (LTSVVVTLW; listed as Homo sapiens) [compound 374] | – | HCC | AML | –
381: peptide found in NRG1 (gene looked up) (ETSFSTSHY; listed as Homo sapiens) [compound 381] | – | HNSCC | HNSCC, OSCAR | –
386: peptide found in KISS1R (gene looked up) (NSALNPLLY; listed as Homo sapiens) [compound 386] | – | BRCA, NSCLCadeno | NSCLCadeno, UEC | RCC
387: peptide found in TYR (gene looked up) (LMEKEDYHSLY; listed as Homo sapiens) [compound 387] | – | MEL | – | MEL
389: peptide found in DNTT (gene looked up) (YYDLVESTF; listed as Homo sapiens) [compound 389] | – | AML | – | AML
398: peptide found in SLC12A2 (gene looked up) (YYYDTHTNTY; listed as Homo sapiens) [compound 398] | – | HNSCC, PRCA | CRC | –

For part of these data: Expression values are those of the mRNA of the gene that encodes the peptide; a gene is named only where it was looked up.
